According to PubChem BioAssay AID192 (DTP/NCI, 2004):
The list shows only some results of the screen, not a fair sample: it gathers tests that were run many times, whatever their T/C, doses with no T/C, and many T/C values between a quarter and a half above the control. Other doses and runs of a compound stand elsewhere. T/C: endpoint of the treated group in % of that of the vehicle group. Some doses have a count of surviving animals in place of a T/C: the source files T/C as zero there, which appears to mark a toxic dose or a test without result, not a measured value. Some doses without a T/C left all or most animals alive at the check, yet need not have been tolerated: survival well below the control is almost never listed, so the zero probably covers shortened survival too. Counts of survivors are from the toxicity check (mostly the fifth day) where no day follows; animals may have died later. Schedule codes are those of the source, read here as Q, the interval in days (D) or hours (H), X, the number of doses. Some entries hold several experiments; their values stand side by side, smallest first. For survival time, this PubChem deposit counts one and a half times the control or more as active, and values a quarter to a half above the control carry no call in these data; other NCI protocols may use other cut-offs. Some T/C values are followed by the survivors on the day toxicity was checked, most often the fifth; where none is given, no animal had died by that day.

Tested on: BDF1 mice, B16 melanoma ip, median survival T/C
Assay: NCI In Vivo Anticancer Drug Screen. Data for tumor model B16 Melanoma (intraperitoneal) in B6D2F1 (BDF1) mice
Settings: T/C endpoint: median survival time, higher T/C = longer survival
How it was run: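 Compounds were tested in mice carrying transplantable tumors. Survival or tumor size was recorded, and each value is the treated-group measurement (T) divided by that of the vehicle-treated control group (C).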

[1] = dose: 200.0 mg/kg/injection, schedule: Q01DX009 (ip), vehicle: saline with Tween-80
[2] = dose: 400.0 mg/kg/injection, schedule: Q01DX009 (ip), vehicle: saline with Tween-80
[3] = dose: 12.5 mg/kg/injection, schedule: Q01DX009 (ip), vehicle: saline
[4] = dose: 25.0 mg/kg/injection, schedule: Q01DX009 (ip), vehicle: saline

For `COc1ccccc1C(C#N)N1CCCN(C(C#N)c2ccccc2OC)C1c1cc(Cl)cc(Cl)c1O` (centres undefined), the survivor count (dose: 100.0 mg/kg/injection, schedule: Q01DX009 (ip), vehicle: saline with Tween-80) was 10 of 10, the survivor count [1] was 10 of 10 and the survivor count [2] was 10 of 10.
`CCCCN(CCCC)CCNc1ccc(Cl)c2oc3cc(C)ccc3c(=O)c12` was tested, and the survivor count (dose: 50.0 mg/kg/injection, schedule: Q01DX009 (ip), vehicle: saline with Tween-80) was 10 of 10, the survivor count (dose: 100.0 mg/kg/injection, schedule: Q04DX003 (ip), vehicle: saline with Tween-80) was 10 of 10 and the survivor count (dose: 200.0 mg/kg/injection, schedule: Q04DX003 (ip), vehicle: saline with Tween-80) was 10 of 10. The survivor count (dose: 400.0 mg/kg/injection, schedule: Q04DX003 (ip), vehicle: saline with Tween-80) was 9 of 10.
With `Cc1ccc(C)c(NS(=O)(=O)c2ccc(Cl)cc2)c1` the survivor count (dose: 400.0 mg/kg/injection, schedule: Q01DX009 (ip), vehicle: Klucel (hydroxypropylcellulose) (HPC)) was 10 of 10.
In the case of `CC[C@H](C)[C@H](NC(=O)OC(C)(C)C)C(=O)ON1C(=O)CCC1=O`, the survivor count [2] is reported as 7 of 10.
For `Cc1cccc(NC(=O)Nc2ccc(Cl)cc2)c1C`, the survivor count (dose: 400.0 mg/kg/injection, schedule: Q01DX009 (ip), vehicle: gum acacia) was 10 of 10.
`COc1cccc(/C=C/[N+](=O)[O-])c1OC` was tested, and the T/C (dose: 17.5 mg/kg/injection, schedule: Q01DX009 (ip), vehicle: saline with Tween-80) was 125 % of control.
With `CC(C)NC(=O)c1ccc(N/N=[N+](/C)[O-])cc1` the survivor count [1] was 10 of 10 and the survivor count [2] was 7 of 10.
With `CC(=O)[O][Pb]([CH2]C(C)C)([CH2]C(C)C)[CH2]C(C)C` the survivor count (dose: 1.5 mg/kg/injection, schedule: Q01DX009 (ip), vehicle: Klucel (hydroxypropylcellulose) (HPC)) was 10 of 10, the survivor count (dose: 3.0 mg/kg/injection, schedule: Q01DX009 (ip), vehicle: Klucel (hydroxypropylcellulose) (HPC)) was 6 of 10 and the survivor count (dose: 6.0 mg/kg/injection, schedule: Q01DX009 (ip), vehicle: Klucel (hydroxypropylcellulose) (HPC)) was 9 of 10. For the same molecule, the survivor count (dose: 12.0 mg/kg/injection, schedule: Q01DX009 (ip), vehicle: Klucel (hydroxypropylcellulose) (HPC)) was 3 of 10.
For `COc1cc(OC)cc(C(O)C(C)NC(C)C)c1` (centres undefined), the T/C [3] was 127 % of control and the T/C [4] was 127 % of control.
In the case of `CN(C)CC/C=C1\c2ccccc2CSc2ccccc21`, the survivor count [3] is reported as 8 of 10, the survivor count [4] is reported as 10 of 10 and the survivor count (dose: 100.0 mg/kg/injection, schedule: Q01DX009 (ip), vehicle: saline) is reported as 0 of 10. The survivor count (dose: 200.0 mg/kg/injection, schedule: Q01DX009 (ip), vehicle: saline) was 0 of 10 and the survivor count (dose: 400.0 mg/kg/injection, schedule: Q01DX009 (ip), vehicle: saline) was 0 of 10.
For `COC(=O)c1[nH]cnc1/N=N/N(C)C`, the T/C (dose: 7.5 mg/kg/injection, schedule: Q01DX009 (ip), vehicle: saline) was 126 % of control, the survivor count (dose: 30.0 mg/kg/injection, schedule: Q01DX009 (ip), vehicle: saline) was 6 of 6 and the survivor count (dose: 60.0 mg/kg/injection, schedule: Q01DX009 (ip), vehicle: saline) was 6 of 6.
In the case of `COc1cc2cc(c1Cl)N(C)C(=O)CC(OC(=O)C(C)C)C1(C)OC1C(C)C1CC(O)(NC(=O)O1)C(OC)/C=C/C=C(C)C2` (centres undefined), the T/C (dose: 4.0 micrograms/kg/injection, schedule: Q01DX009 (ip), vehicle: saline + alcohol) is reported as 141 % of control, the T/C (dose: 6.2 micrograms/kg/injection, schedule: Q01DX009 (ip), vehicle: saline + alcohol) is reported as 129 % of control [9 of 10 alive] and the T/C (dose: 6.25 micrograms/kg/injection, schedule: Q01DX009 (ip), vehicle: saline + alcohol) is reported as 139 % of control. For the same molecule, the T/C (dose: 12.5 micrograms/kg/injection, schedule: Q01DX009 (ip), vehicle: saline + alcohol) was 144 % of control, the survivor count (dose: 50.0 micrograms/kg/injection, schedule: Q01DX009 (ip), vehicle: saline + alcohol) was 10 of 10 and the survivor count (dose: 100.0 micrograms/kg/injection, schedule: Q01DX009 (ip), vehicle: saline + alcohol) was 1 of 10 and 10 of 10. The survivor count (dose: 200.0 micrograms/kg/injection, schedule: Q01DX009 (ip), vehicle: saline + alcohol) was 0 of 10 and 10 of 10.
